Laboratory results: PubChem BioAssay AID1224826 (NIAID, 2016)
Here is a random part of about 17,000 reagents. Over the whole deposit, about 1,110 (6.6%) got an active call. 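Active means lowered or raised reporter signal; replicate intensities are raw and not normalised per plate.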 A number with no mark means an inactive call.

Test: 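Genes that change LPS-induced Tnf promoter activity in mouse macrophages when knocked down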 (primary screen)
Cell system: RAW264.7 G9 macrophages from mouse bearing reporters for p65 (GFP) and the Tnf promoter (mCherry)
Reagents: siRNA pool against mouse genes, 100 nM
Timing: 16 h of LPS stimulation, after 2 days of siRNA transfection
Conditions: bacterial lipopolysaccharide (Salmonella minnesota R595), 10 ng/ml
Detection: 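Nuclear mCherry signal of the Tnf promoter reporter measured by imaging after background removal, scaled to each plate median and turned into robust z-scores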
Reading the numbers: Tnf reporter robust z-score: higher = stronger Tnf promoter reporter signal after LPS; Tnf reporter intensity: higher = stronger Tnf promoter reporter signal
Active means: 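a well counts as active at a score of -1.3 or below (Tlr4 knock-down control median) or above 3 (raised signal); controls and wells holding fewer than 50 cells are excluded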
Calls: active = Tnf reporter clearly lowered or raised; inactive = no clear change in Tnf reporter

gene	Tnf reporter robust z-score	fewer than 50 cells in well	Tnf reporter intensity, replicate 1	Tnf reporter intensity, replicate 2
Ddx21 (DExD box helicase 21)	1.27	enough cells in well	285	217
Or13a18 (olfactory receptor family 13 subfamily A member 18)	0.28	enough cells in well	120	128
Efna5 (ephrin A5)	-1.69 (active)	enough cells in well	105	92.8
Pcdhga9 (protocadherin gamma subfamily A, 9)		fewer than 50 cells per well; well left out of calls	107	91.9
Zfp354a (zinc finger protein 354A)	-0.82	enough cells in well	185	143
Pcdhb8 (protocadherin beta 8)	-1.75 (active)	enough cells in well	125	53.5
Cfb (complement factor B)	-1.65 (active)	enough cells in well	125	94.6
Marcks (myristoylated alanine rich protein kinase C substrate)	-0.94	enough cells in well	182	138
Kif20a (kinesin family member 20A)	0.23	enough cells in well	268	155
Hars1 (histidyl-tRNA synthetase 1)	-0.53	enough cells in well	279	83.1
Rbm28 (RNA binding motif protein 28)	0.82	enough cells in well	180	147
Tnfrsf4 (tumor necrosis factor receptor superfamily, member 4)	-0.01	enough cells in well	256	119
Camkk1 (calcium/calmodulin-dependent protein kinase kinase 1, alpha)	0.52	enough cells in well	236	181
Atp13a5 (ATPase type 13A5)	2.16	enough cells in well	202	268
Or10ag53 (olfactory receptor family 10 subfamily AG member 53)	-0.37	enough cells in well	149	143
Alox5 (arachidonate 5-lipoxygenase)	-0.18	enough cells in well	204	229
Nars1 (asparaginyl-tRNA synthetase 1)	-1.24	enough cells in well	130	74.7
4933411G06Rik (RIKEN cDNA 4933411G06 gene)		fewer than 50 cells per well; well left out of calls	179	95.3
Dclre1c (DNA cross-link repair 1C)	0.45	enough cells in well	193	205
Pdgfra (platelet derived growth factor receptor, alpha polypeptide)	1.69	enough cells in well	353	210
Tnfsf4 (tumor necrosis factor (ligand) superfamily, member 4)	-0.65	enough cells in well	222	79.6
Treml6 (triggering receptor expressed on myeloid cells-like 6)	1.02	enough cells in well	290	265
Sqstm1 (sequestosome 1)		fewer than 50 cells per well; well left out of calls	211	97.3
Tex10 (testis expressed gene 10)	0.37	enough cells in well	123	113
Tmem38b (transmembrane protein 38B)		fewer than 50 cells per well; well left out of calls	61.3	38.5
Camta2 (calmodulin binding transcription activator 2)	-0.47	enough cells in well	101	165
Mea1 (male enhanced antigen 1)	1.31	enough cells in well	260	222
Or4b1d (olfactory receptor family 4 subfamily B member 1D)	2.88	enough cells in well	356	237
Dnajb7 (DnaJ heat shock protein family (Hsp40) member B7)	-0.75	enough cells in well	120	98.5
Clic1 (chloride intracellular channel 1)	-0.08	enough cells in well	148	188
Lrrc8a (leucine rich repeat containing 8A VRAC subunit A)	-1.35 (active)	enough cells in well	98.7	83.9
Rusc1 (RUN and SH3 domain containing 1)	3.24 (active)	enough cells in well	295	240
Tmem178 (transmembrane protein 178)		fewer than 50 cells per well; well left out of calls	74.8	84.9
Stoml3 (stomatin (Epb7.2)-like 3)	2.74	enough cells in well	229	157
Slc22a29	-0.31	enough cells in well	200	119
Cd34 (CD34 antigen)	0.64	enough cells in well	286	265
Mtus1 (mitochondrial tumor suppressor 1)	1.48	enough cells in well	295	184
Slc7a6	-0.76	enough cells in well	145	147
Ccr7 (C-C motif chemokine receptor 7)	0.73	enough cells in well	263	378
Or5p5 (olfactory receptor family 5 subfamily P member 5)	0.52	enough cells in well	284	292
Slc41a2	0.29	enough cells in well	130	179
Ap1s1 (adaptor protein complex AP-1, sigma 1)	-0.22	enough cells in well	162	201
Ppp1r13b (protein phosphatase 1, regulatory subunit 13B)	0.34	enough cells in well	280	209
P2ry12 (purinergic receptor P2Y, G-protein coupled 12)	-1	enough cells in well	205	39.5
Chmp1b (charged multivesicular body protein 1B)		fewer than 50 cells per well; well left out of calls	158	36.1
Hoxb13 (homeobox B13)	1.32	enough cells in well	306	305
Pi15 (peptidase inhibitor 15)	0.86	enough cells in well	190	172
Polm (polymerase (DNA directed), mu)		fewer than 50 cells per well; well left out of calls	258	163
Pdpn (podoplanin)	-0.89	enough cells in well	197	97.3
Abca13 (ATP-binding cassette, sub-family A member 13)	-1.13	enough cells in well	136	90.4
Chrna9 (cholinergic receptor, nicotinic, alpha polypeptide 9)	-0.82	enough cells in well	196	133
Ibtk (inhibitor of Bruton agammaglobulinemia tyrosine kinase)		fewer than 50 cells per well; well left out of calls	99.7	97.8
Dzip1 (DAZ interacting protein 1)	-0.46	enough cells in well	151	102
Rhoh (ras homolog family member H)		fewer than 50 cells per well; well left out of calls	129	78.7
Chst12 (carbohydrate sulfotransferase 12)	0.1	enough cells in well	179	170
Tlk2 (tousled-like kinase 2 (Arabidopsis))	-0.03	enough cells in well	159	142
Polh (polymerase (DNA directed), eta (RAD 30 related))	-0.85	enough cells in well	163	147
Erc2 (ELKS/RAB6-interacting/CAST family member 2)	0.9	enough cells in well	317	280
Ppp1r37 (protein phosphatase 1, regulatory subunit 37)	0.13	enough cells in well	241	187
Pcdha3 (protocadherin alpha 3)	2.26	enough cells in well	231	262
Thnsl2 (threonine synthase-like 2 (bacterial))		fewer than 50 cells per well; well left out of calls	173	157
Khdc1a (KH domain containing 1A)	-0.42	enough cells in well	138	150
Noxo1 (NADPH oxidase organizer 1)	1.73	enough cells in well	372	177
Cbs (cystathionine beta-synthase)	2.26	enough cells in well	453	348
Scyl2 (SCY1-like 2 (S. cerevisiae))	-1.06	enough cells in well	131	96.6
Fzr1 (fizzy and cell division cycle 20 related 1)	0.03	enough cells in well	271	130
Stk32c (serine/threonine kinase 32C)		fewer than 50 cells per well; well left out of calls	119	84
Gm9735 (predicted gene 9735)	-1.23	enough cells in well	131	84
Lce1a1 (late cornified envelope 1A1)	0.09	enough cells in well	117	89.7
Tfap2e (transcription factor AP-2, epsilon)	0.53	enough cells in well	132	116
Pglyrp3 (peptidoglycan recognition protein 3)	1.67	enough cells in well	218	219
Tmem81 (transmembrane protein 81)		fewer than 50 cells per well; well left out of calls	191	50.3
Arhgap39 (Rho GTPase activating protein 39)	-0.76	enough cells in well	128	140
Ripk3 (receptor-interacting serine-threonine kinase 3)	1.06	enough cells in well	272	213
Samd9l (sterile alpha motif domain containing 9-like)	0.13	enough cells in well	170	159
